In patent US20240417485A1:
No constants are given. Whether binding was seen depends on the method and setting. Some binding calls cover weakened binding; strength is not graded here.

Chains of the proteins cited; added tags and fusions are not shown. Residues count along the entry.
UniProt Q03405, residues 23-303: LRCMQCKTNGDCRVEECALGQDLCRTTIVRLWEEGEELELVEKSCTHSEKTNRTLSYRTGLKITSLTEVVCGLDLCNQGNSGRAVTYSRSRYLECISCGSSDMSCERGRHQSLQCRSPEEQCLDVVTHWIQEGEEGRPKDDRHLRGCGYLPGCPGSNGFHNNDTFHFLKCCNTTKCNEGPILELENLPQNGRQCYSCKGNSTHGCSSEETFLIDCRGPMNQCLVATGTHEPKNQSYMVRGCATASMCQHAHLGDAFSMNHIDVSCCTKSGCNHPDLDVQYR

Key:
[1] = target: recombinant uPAR-Biotin (human) (UniProt Q03405); assay: BLItz, uPAR-Biotin on streptavidin sensor, VH 3 at 500 nM, first association step of the competition run
[2] = target: recombinant uPAR-Biotin (human) (UniProt Q03405); assay: summary of the example (BLItz / ELISA)

binding [1]: binds
binding [2]: binds
B1: VH 3 (VHH)
VHH: EVQLVESGGGLVQPGGSLRLSCAASGFTFSRYWMSWVRQAPGKALEWIGEINHSGSTNYNPSLKSLVTISRDNSKNTLYLQMNSLRAEDTATYYCARSLVPALSYYYYYGMDVWGQGTTVTVSS
